{"source": "PubChem BioAssay AID1159578 | Peter MacCallum Cancer Centre – 2015", "test": "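siRNA pools altering how lymphatic endothelial cells close a scratch wound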 (primary screen)", "cells": "human lymphatic endothelial cells", "reagents": "siRNA pool against human genes, 40 nM", "duration": "48 h after transfection", "read-out": "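High-content imaging of dye-stained cells in a scratch assay measures filled wound area and nuclei per well; duplicate means given as ratio to mock and robust z-score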", "scale": "migration robust z-score: higher = faster migration into the scratch; nuclei per well: higher = more cells in the well", "hit rule": "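Migration changed when robust z exceeds 2 or falls below -2 and mean nuclei number is at least 3300; otherwise not called changed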", "meaning of the calls": "active = migration changed; inactive = no migration change, or too few cells", "note": "In all, the deposit lists about 18,000 reagents; shown is a part drawn at random. About 1,030 of them (5.7%) were called active. 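Inactive calls also include pools with fewer than 3300 nuclei, whose migration was not assessed.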 Raw values are not corrected between plates. Further read-outs or replicates are left out here."}
{"target":"EBP","migration robust z-score":0.31,"migration class with cell-count check":"migration z between -2 and 2; enough cells","nuclei per well, duplicate mean":5905,"activity call":"inactive"}
{"target":"CHRM3","migration robust z-score":-0.76,"migration class with cell-count check":"migration z between -2 and 2; enough cells","nuclei per well, duplicate mean":6458,"activity call":"inactive"}
{"target":"MRPS11","migration robust z-score":-0.78,"migration class with cell-count check":"migration z between -2 and 2; enough cells","nuclei per well, duplicate mean":3460,"activity call":"inactive"}
{"target":"MYL12A","migration robust z-score":-0.06,"migration class with cell-count check":"migration z between -2 and 2; enough cells","nuclei per well, duplicate mean":5757,"activity call":"inactive"}
{"target":"CATSPERB","migration robust z-score":0.52,"migration class with cell-count check":"migration z between -2 and 2; enough cells","nuclei per well, duplicate mean":5799,"activity call":"inactive"}
{"target":"GABRA6","migration robust z-score":0.32,"migration class with cell-count check":"migration z between -2 and 2; enough cells","nuclei per well, duplicate mean":5608,"activity call":"inactive"}
{"target":"HGFAC","migration robust z-score":-1.19,"migration class with cell-count check":"migration z between -2 and 2; enough cells","nuclei per well, duplicate mean":3992,"activity call":"inactive"}
{"target":"ZDHHC5","migration robust z-score":0.52,"migration class with cell-count check":"migration z between -2 and 2; enough cells","nuclei per well, duplicate mean":6074,"activity call":"inactive"}
{"target":"POU3F4","migration robust z-score":-1.22,"migration class with cell-count check":"migration z between -2 and 2; enough cells","nuclei per well, duplicate mean":5658,"activity call":"inactive"}
{"target":"IRF4","migration robust z-score":0.26,"migration class with cell-count check":"migration z between -2 and 2; enough cells","nuclei per well, duplicate mean":5871,"activity call":"inactive"}
{"target":"CDC20","migration robust z-score":-0.62,"migration class with cell-count check":"migration z between -2 and 2; enough cells","nuclei per well, duplicate mean":4132,"activity call":"inactive"}
{"target":"SNX2","migration robust z-score":-1.02,"migration class with cell-count check":"migration z between -2 and 2; enough cells","nuclei per well, duplicate mean":6982,"activity call":"inactive"}

Entries listed so far whose gene name starts with C or c (3):
{"target":"CHRM3","migration robust z-score":-0.76,"migration class with cell-count check":"migration z between -2 and 2; enough cells","nuclei per well, duplicate mean":6458,"activity call":"inactive"}
{"target":"CATSPERB","migration robust z-score":0.52,"migration class with cell-count check":"migration z between -2 and 2; enough cells","nuclei per well, duplicate mean":5799,"activity call":"inactive"}
{"target":"CDC20","migration robust z-score":-0.62,"migration class with cell-count check":"migration z between -2 and 2; enough cells","nuclei per well, duplicate mean":4132,"activity call":"inactive"}
